Drawing on paper PMC7910438, “The TUTase URT1 connects decapping activators and prevents the accumulation of excessively deadenylated mRNAs to avoid siRNA biogenesis” (Nature Communications, 2021), this text covers binding for 1 substance.

Results are given in words; binding and its absence hold for the method and conditions named. Where a sequence is shown, tags or fusion partners need not be part of it.

For the test, the target named is T1, 6His-GST-URT1 (Arabidopsis thaliana, UniProt O64642 1-764).
T1 construct: URT1, Arabidopsis thaliana, AT2G45620, 764 amino acids; amplified from cDNA; Plasmids in Supplementary Data 7; expression and purification in Supplementary Methods; source: E. coli BL21 DE3, purified; not shown: 6His, N-terminal, kept; GST, N-terminal, kept
T1 sequence (looked up): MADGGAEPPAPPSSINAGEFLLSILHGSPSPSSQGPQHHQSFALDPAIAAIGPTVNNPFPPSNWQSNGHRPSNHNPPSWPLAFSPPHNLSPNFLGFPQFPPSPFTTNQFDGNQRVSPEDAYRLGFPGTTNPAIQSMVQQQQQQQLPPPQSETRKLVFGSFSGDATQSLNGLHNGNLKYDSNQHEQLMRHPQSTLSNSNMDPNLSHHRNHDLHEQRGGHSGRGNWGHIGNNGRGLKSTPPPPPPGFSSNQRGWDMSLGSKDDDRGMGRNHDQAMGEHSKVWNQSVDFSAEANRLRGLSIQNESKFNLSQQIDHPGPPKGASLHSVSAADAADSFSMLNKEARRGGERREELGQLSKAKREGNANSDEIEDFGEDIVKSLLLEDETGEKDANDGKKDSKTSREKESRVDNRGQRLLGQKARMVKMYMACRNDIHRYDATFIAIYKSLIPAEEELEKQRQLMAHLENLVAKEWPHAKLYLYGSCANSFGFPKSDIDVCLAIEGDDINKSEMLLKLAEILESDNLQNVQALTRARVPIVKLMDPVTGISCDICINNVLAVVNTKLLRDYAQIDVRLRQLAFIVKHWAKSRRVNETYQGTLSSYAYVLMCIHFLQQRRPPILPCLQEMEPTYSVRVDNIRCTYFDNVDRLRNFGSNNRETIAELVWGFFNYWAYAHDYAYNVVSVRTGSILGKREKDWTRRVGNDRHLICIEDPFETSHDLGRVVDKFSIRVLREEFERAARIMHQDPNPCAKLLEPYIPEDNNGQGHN
Put plainly: pull-down; GST pull-down on glutathione sepharose; 10 pmol of each purified protein in 500 µl of 20 mM MOPS pH 7.2, 100 mM KCl, 15% glycerol, 0.1% Tween 20 with 100 ng/µl RNase A, 4 °C; SDS-PAGE, SYPRO Ruby; both purified.

As for “6His-MBP-∆LSmDCP5 (Arabidopsis thaliana) (domain or fragment)”, the binding entry is recorded as “no binding (tested: 10 pmol of each protein in 500 µl)”.
